Measured values reported in PubChem BioAssay AID248 (DTP/NCI, 2004).
The list does not hold the whole screen: it is rich in T/C values a quarter to a half above the control, in often repeated tests (any T/C) and in doses without a T/C. Other doses and runs of a compound stand elsewhere. T/C: endpoint of the treated group in % of that of the vehicle group. Some entries give survivors of the animals treated and no T/C: the source files T/C as zero there, which appears to mark a toxic dose or a test without result, not a measured value. Some doses without a T/C left all or most animals alive at the check, yet need not have been tolerated: survival well below the control is almost never listed, so the zero probably covers shortened survival too. Counts of survivors are from the toxicity check (mostly the fifth day) where no day follows; animals may have died later. Schedule codes are those of the source, read here as Q, the interval in days (D) or hours (H), X, the number of doses. Some schedule codes hold Z or #, which are not explained here. Some molecules as drawn cover several salts, stereoisomers or complexes of the source; a dose is that of the sample tested. Where survival is the endpoint, this PubChem deposit counts one and a half times the control or more as active, and values a quarter to a half above the control carry no call in these data; other NCI protocols may use other cut-offs. Some entries hold several experiments; the results are listed from low to high. Some T/C values carry the count of animals alive at the toxicity check (mostly the fifth day); where none is given, no animal had died by that day.

Tested on: L1210 leukemia ip in BDF1 mice, survival T/C
Experiment: NCI In Vivo Anticancer Drug Screen. Data for tumor model L1210 Leukemia (intraperitoneal) in B6D2F1 (BDF1) mice
Settings: T/C endpoint: mean survival time, higher T/C = longer survival
[1] = dose: 80.0 mg/kg/injection, schedule: Q01DX001 (ip), vehicle: saline
[2] = dose: 100.0 mg/kg/injection, schedule: Q04DX002 (ip), vehicle: saline with Tween-80
[3] = dose: 75.0 mg/kg/injection, schedule: Q01DX001 (ip), vehicle: saline
[4] = dose: 150.0 mg/kg/injection, schedule: Q01DX001 (ip), vehicle: saline
[5] = dose: 100.0 mg/kg/injection, schedule: Q04DX002 (ip), vehicle: Klucel (hydroxypropylcellulose) (HPC)
[6] = dose: 200.0 mg/kg/injection, schedule: Q04DX002 (ip), vehicle: Klucel (hydroxypropylcellulose) (HPC)
[7] = dose: 400.0 mg/kg/injection, schedule: Q04DX002 (ip), vehicle: Klucel (hydroxypropylcellulose) (HPC)
[8] = dose: 400.0 mg/kg/injection, schedule: Q01DX009 (ip), vehicle: Klucel (hydroxypropylcellulose) (HPC)
[9] = dose: 100.0 mg/kg/injection, schedule: Q01DX009 (ip), vehicle: saline
[10] = dose: 200.0 mg/kg/injection, schedule: Q01DX009 (ip), vehicle: Klucel (hydroxypropylcellulose) (HPC)

Compound: COc1ccc(C(CC(=O)c2ccccc2)CC(=O)c2ccccc2)cc1
- survivor count (dose: 100.0 mg/kg/injection, schedule: Q04DX003 (ip), vehicle: saline with Tween-80): 5 of 6
- survivor count (dose: 200.0 mg/kg/injection, schedule: Q04DX003 (ip), vehicle: saline with Tween-80): 5 of 6

Compound: CC(CCCN(CCCl)CCCl)Nc1ccnc2cc(Cl)ccc12 (configuration not stated)
- survivor count (dose: 20.0 mg/kg/injection, schedule: Q01DX001 (ip), vehicle: saline): 1 of 6
- survivor count (dose: 40.0 mg/kg/injection, schedule: Q01DX001 (ip), vehicle: saline): 0 of 6
- survivor count [1]: 0 of 6

Compound: CCCCCCCCCCCCCCCCCCNC(=O)Nc1cccc(OC)c1
- survivor count [2]: 3 of 3

Compound: COc1cc(N)c2ncccc2c1
- survivor count (dose: 60.0 mg/kg/injection, schedule: Q01DX001 (ip), vehicle: saline): 1 of 6
- survivor count [3]: 2 of 6
- survivor count (dose: 150.0 mg/kg/injection, schedule: Q01DX001 (ip), vehicle: carboxymethylcellulose (CMC)): 3 of 6
- survivor count [4]: 0 of 6
- survivor count (dose: 300.0 mg/kg/injection, schedule: Q01DX001 (ip), vehicle: carboxymethylcellulose (CMC)): 0 of 6
- survivor count (dose: 300.0 mg/kg/injection, schedule: Q01DX001 (ip), vehicle: saline): 0 of 6

Compound: Cc1ccc([N+](=O)[O-])cc1NC(=O)N(C)Cc1ccc(Cl)cc1
- T/C [5]: 91, 94, 95, 97 % of control
- T/C (dose: 100.0 mg/kg/injection, schedule: Q04DX003 (ip), vehicle: Klucel (hydroxypropylcellulose) (HPC)): 126 % of control
- T/C [6]: 94, 97, 98, 106 % of control
- T/C (dose: 200.0 mg/kg/injection, schedule: Q04DX003 (ip), vehicle: Klucel (hydroxypropylcellulose) (HPC)): 126 % of control
- T/C [7]: 91, 98, 100, 144 % of control

Compound: N#CCC(=O)[O][Sn]([c]1ccccc1)([c]1ccccc1)[c]1ccccc1
- survivor count (dose: 6.25 mg/kg/injection, schedule: Q01DX009 (ip), vehicle: saline with Tween-80): 6 of 6
- survivor count (dose: 12.5 mg/kg/injection, schedule: Q01DX009 (ip), vehicle: saline with Tween-80): 0 of 6
- survivor count (dose: 25.0 mg/kg/injection, schedule: Q01DX009 (ip), vehicle: saline with Tween-80): 0 of 6
- survivor count (dose: 25.0 mg/kg/injection, schedule: Q04DX002 (ip), vehicle: saline with Tween-80): 1 of 3
- survivor count (dose: 50.0 mg/kg/injection, schedule: Q04DX002 (ip), vehicle: saline with Tween-80): 0 of 3
- survivor count [2]: 0 of 3
- survivor count (dose: 200.0 mg/kg/injection, schedule: Q04DX002 (ip), vehicle: saline with Tween-80): 0 of 3
- survivor count (dose: 400.0 mg/kg/injection, schedule: Q04DX002 (ip), vehicle: saline with Tween-80): 0 of 3

Compound: CCCCCCCCC(Br)C(Br)CCCCCCCC(=O)O (configuration not stated)
- survivor count [2]: 2 of 3

Compound: S=C=Nc1cccc(N=C=S)c1
- survivor count (dose: 40.0 mg/kg/injection, schedule: Q01DX001 (ip), vehicle: acetone): 0 of 4
- survivor count (dose: 50.0 mg/kg/injection, schedule: Q01DX001 (ip), vehicle: acetone): 0 of 4
- survivor count (dose: 80.0 mg/kg/injection, schedule: Q01DX001 (ip), vehicle: acetone): 0 of 4
- survivor count (dose: 100.0 mg/kg/injection, schedule: Q01DX001 (ip), vehicle: acetone): 0 of 4
- survivor count (dose: 200.0 mg/kg/injection, schedule: Q01DX001 (ip), vehicle: acetone): 0 of 4
- survivor count (dose: 400.0 mg/kg/injection, schedule: Q01DX001 (ip), vehicle: acetone): 0 of 4

Compound: O=[N+]([O-])c1cccc(/C=N/NC(=S)Nc2ccccc2)c1
- survivor count [8]: 3 of 6

Compound: CC(C)=CC(=O)OC1C2C(C)C(=O)OC2C(O)C(C)C2C=CC(=O)C21C (configuration not stated)
- survivor count (dose: 100.0 mg/kg/injection, schedule: Q01DX009 (ip), vehicle: Klucel (hydroxypropylcellulose) (HPC)): 3 of 6
- survivor count [9]: 1 of 6

Compound: CC1CCCCC1=C(C#N)C#N (configuration not stated)
- survivor count [1]: 0 of 4

Compound: CCCCCCCCCCCCCCCCCCNC(=S)N/N=C/c1ccccc1[N+](=O)[O-]
- survivor count (dose: 250.0 mg/kg/injection, schedule: Q01DX Z (ip), vehicle: methylcellulose (MC)): 2 of 6

Compound: COC1OC(COC(C)=O)C(OC(C)=O)C2C1N2C(N)=S (configuration not stated)
- T/C (dose: 200.0 mg/kg/injection, schedule: Q04DX002 (ip), vehicle: saline): 125 % of control

Compound: CCc1c2cc(OC)c(OC)cc2cc2c3cc(OC)c(OC)cc3cc[n+]12 (tested in a mixture with another compound)
- T/C (dose: 44.0 mg/kg/injection, schedule: Q01DX009 (ip), vehicle: saline with Tween-80): 147 % of control
- T/C (dose: 100.0 mg/kg/injection, schedule: Q01DX009 (ip), vehicle: saline with Tween-80): 142 % of control
- T/C [9]: 145 % of control
- T/C (dose: 132.0 mg/kg/injection, schedule: Q04DX003 (ip), vehicle: saline): 132 % of control [5 of 6 alive]
- survivor count (dose: 200.0 mg/kg/injection, schedule: Q01DX009 (ip), vehicle: saline with Tween-80): 3 of 6
- T/C (dose: 200.0 mg/kg/injection, schedule: Q04DX003 (ip), vehicle: saline): 137 % of control
- survivor count (dose: 400.0 mg/kg/injection, schedule: Q01DX009 (ip), vehicle: saline with Tween-80): 0 of 6

Compound: O=C(NC1CCCCC1)Oc1cc(CCl)cc(CCl)c1
- survivor count [10]: 3 of 3

Compound: NC(=O)NN=C(CCl)CCl
- survivor count (dose: 400.0 mg/kg/injection, schedule: Q04DX002 (ip), vehicle: saline): 0 of 3

Compound: COC(C(C)C)[CH]1[Hg][O]C1=O (configuration not stated)
- survivor count (dose: 5.0 mg/kg/injection, schedule: Q01DX001 (ip), vehicle: steroid suspending solution): 3 of 6
- survivor count (dose: 10.0 mg/kg/injection, schedule: Q01DX001 (ip), vehicle: steroid suspending solution): 0 of 6
- survivor count (dose: 20.0 mg/kg/injection, schedule: Q01DX001 (ip), vehicle: steroid suspending solution): 1 of 6
- survivor count (dose: 40.0 mg/kg/injection, schedule: Q01DX001 (ip), vehicle: steroid suspending solution): 1 of 6
- survivor count (dose: 80.0 mg/kg/injection, schedule: Q01DX001 (ip), vehicle: steroid suspending solution): 1 of 6
- survivor count (dose: 100.0 mg/kg/injection, schedule: Q01DX001 (ip), vehicle: steroid suspending solution): 0 of 4
- survivor count (dose: 200.0 mg/kg/injection, schedule: Q01DX001 (ip), vehicle: steroid suspending solution): 0 of 4
- survivor count (dose: 400.0 mg/kg/injection, schedule: Q01DX001 (ip), vehicle: steroid suspending solution): 0 of 4

Compound: O=[N+]([O-])c1ccc(N2CCC(CCCC3CCN(c4ccc([N+](=O)[O-])cc4[N+](=O)[O-])CC3)CC2)c([N+](=O)[O-])c1
- survivor count [10]: 6 of 6
- survivor count [8]: 0 of 6

Compound: CC(CCF)C(N)C(=O)O (configuration not stated)
- survivor count (dose: 25.0 mg/kg/injection, schedule: Q01DX009 (ip), vehicle: saline): 2 of 6
- survivor count (dose: 50.0 mg/kg/injection, schedule: Q01DX009 (ip), vehicle: saline): 0 of 6
- survivor count [3]: 0 of 6
- survivor count (dose: 87.5 mg/kg/injection, schedule: Q01DX009 (ip), vehicle: saline): 0 of 6
- survivor count [4]: 0 of 6
- survivor count (dose: 175.0 mg/kg/injection, schedule: Q01DX009 (ip), vehicle: saline): 0 of 6
- survivor count (dose: 350.0 mg/kg/injection, schedule: Q01DX009 (ip), vehicle: saline): 0 of 6

Compound: COc1cc(C=Nc2ccc3nc(C)[nH]c3c2)ccc1N(CCCl)CCCl
- survivor count [5]: 0 of 3
- survivor count [6]: 0 of 3
- survivor count [7]: 0 of 3
